The data set can be described thus: Radiolabelling yield with ^67Ga by TLC analysis. The settings on record: CP256: PBS, 25° C., DOTA: acetate, 80° C.

In the case of `CC(=O)NC(CCC(=O)NCc1c(O)c(=O)cc(C)n1C)(CCC(=O)NCc1c(O)c(=O)cc(C)n1C)CCC(=O)NCc1c(O)c(=O)cc(C)n1C.Cl.Cl.Cl` [CP256, 4-Acetylamino-4-{2-[(3-hydroxy-1,6-dimethyl-4-oxo-1,4-dihydro-pyridin-2-ylmethyl)-carbamoyl]-ethyl}-heptanedioic acid bis-[(3-hydroxy-1,6-dimethyl-4-oxo-1,4-dihydro-pyridin-2-ylmethyl)-amide]tris hydrochloride salt], the Radiotracer labelling yield runs as follows: (ligand concentration 10 nM) 0%; (ligand concentration 100 nM) 0%; (ligand concentration 1 μM) 84%; (ligand concentration 10 μM) 100%; (ligand concentration 100 μM) 100%; (ligand concentration 1 mM) 100%.
Turning to `O=C(O)CN1CCN(CC(=O)O)CCN(CC(=O)O)CCN(CC(=O)O)CC1` [DOTA, 1,4,7,10-tetraazacyclododecane-N,N′,N″,N′″-tetraacetic acid, reference compound], the Radiotracer labelling yield is 0% (ligand concentration 10 nM); 0% (ligand concentration 100 nM); 0% (ligand concentration 1 μM); 35% (ligand concentration 10 μM); 100% (ligand concentration 100 μM); 100% (ligand concentration 1 mM).

The values above are taken from patent US9138495B2, “Conjugates and their uses in molecular imaging” (King's College London, priority 2010, dated 2015).
